Measured values published in PubChem BioAssay AID1508600 (Functional Genomics Laboratory (NCATS/FGL), 2020).
Screen size: about 53,000 sequences; about 3,700 (7%) were called active.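 The calls were made as follows: active = gene knockdowns whose robust z-score for IL-1 alpha signal is at least 2 or at most -2, so actives lie on both sides; inactive = the rest.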 The list shows a part of the results.

Test: Components of the Cytosolic LPS Sensing Pathway: Gene Identification via Genome-wide siRNA Screen;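 also: robust z of the log signal after scaling to non-targeting control siRNA wells of the plate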
Conditions: RAW264.7 macrophages, IL-1a HTRF, actives lie on both sides, screened at 100 nM (by protocol), cells primed 5 h with Pam3CSK4 first
In short: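 RAW264.7; siRNA 100 nM final, RNAiMAX, 48h 37 degrees C; Pam3CSK4 5 h; LipidA + TransIT-TKO 24 h; IL-1a HTRF; CellTiter-Glo viability; robust z vs negative-control median.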

| Sequence | z-score |
| --- | --- |
| GGAAAUCCGGCUCAUUGAUTT against Aass | inactive: -0.0621 |
| GCCAAAUGACCUUCAGUGUTT against Klk1b24 | inactive: -0.187 |
| CACCUCUGGUGAAAGCUAATT against Bola1 | inactive: 0.308 |
| GGAUCCUGAAACCAUGAGCTT against Lrrc14 | inactive: 0.482 |
| CGGAAGUAAAAAGAACUACTT against Olfr1321 | active: 3.01 |
| GCAGCAUUGAUAAAUGGUCTT against Rab3c | inactive: 0.571 |
| GGCCCAUCACUUACUAAAGTT against Exoc3l | inactive: 0.224 |
| CCUGGACAAGCUAUACCUUTT against Cdc45 | inactive: 0.952 |
| GCAGAGGAACAAGGCAUGUTT against Olfr345 | inactive: -1.42 |
| GCCUGUUCUAGUGGUUCUUTT against Krtap4-13 | inactive: -0.427 |
| GGAGACAUGUUCCACAGGCTT against Ngfr | inactive: -1.31 |
| GGGCAACACCAUGGAGAUCTT against Crybb1 | inactive: 1.78 |
| GGUAUGAUGAACAGUCCAGTT against Ep300 | active: -2.35 |
| CCUUCUUUAUAGGUAUGACTT against Klhl36 | inactive: 0.91 |
| CCUAAGCAGCAUUUCAAUATT against Gyg | inactive: 1.02 |
| GGACGGCCUGUUUGUUAUATT against Olfr1346 | inactive: 1.21 |
| CCUGUGAAUUCAUCGUUCATT against Vps26c | active: 2.34 |
| CCAACAGUACCUCAUUGCUTT against Ciao2a | inactive: -0.834 |
| CCUUCAGAUUUCAGCUGAATT against Prkcb | inactive: 0.366 |
| GGCAUGGAUCCUGAAAAACTT against Clec16a | inactive: -0.208 |
| GGUGGUAUUGUUGGCUUUATT against Olfr1297 | inactive: 0.293 |
| CGGGAUCCUGUUUCAAGCUTT against Abr | inactive: 0.19 |

Random excerpt: 3 records from the list

| Sequence | z-score |
| --- | --- |
| GCCAAAUGACCUUCAGUGUTT against Klk1b24 | inactive: -0.187 |
| GCCUGUUCUAGUGGUUCUUTT against Krtap4-13 | inactive: -0.427 |
| CCUGUGAAUUCAUCGUUCATT against Vps26c | active: 2.34 |

(further entries)

| Sequence | z-score |
| --- | --- |
| GCAUCCUCAUCAUUCCAAATT against Cd226 | inactive: 0.579 |
| GGUGGCUAUUGUCUUCAAGTT against Ptpa | inactive: -0.104 |
| CGAAACCAAUCUAAAGAAGTT against Aco2 | inactive: 0.184 |
| CCUUCGAGACCUGUUGUCUTT against Kif26b | inactive: -1.2 |
| GGCUCUGAAUCAGAAGAGUTT against Adamtsl2 | inactive: -0.57 |
| GGAAAAAGCACCAUUGUGATT against Gnao1 | inactive: -0.819 |
| GGCUUUAUGCAUCAGUUAATT against Ralgapb | inactive: -0.986 |
| GGAAUGUGUGGGUUUUCCUTT against Tmem14c | inactive: 1.23 |
| GGAUUUUUGAUGAUGUGUCTT against Arfgap1 | inactive: -0.795 |
| GGCAGAACCCACUGAGAAATT against Pakap | inactive: -0.349 |
| GGGUAGAAGAAAACGAUUUTT against Atxn7 | inactive: 0.533 |
| CCAAUUGGAAUCCCAUUUUTT against Cd47 | inactive: -0.273 |
| GGUGAACAGAUCGCCAUCATT against Ikbkb | inactive: -0.273 |
| GGUUUUCUAGUUUGAGUUUTT against Atp1b2 | inactive: 1.29 |
| CCGGGUCAAGUUGGUCAACTT against Ascl1 | inactive: 0.407 |
| GGAAAAAGAUGGAAGAAUUTT against Thoc1 | inactive: -1.1 |
| GGUAUAUGGCCAUUAUCGATT against Tacr3 | inactive: -0.614 |
| CGCGCAGAUGCACCAGAUUTT against 2610028H24Rik | inactive: 1.12 |
| CCUUUUAUCACAUUCGGAGTT against Rnf133 | inactive: 0.141 |
| GCAUGGUAGUUCUUUAGCATT against Xcr1 | inactive: -0.173 |
| CGAGUCAAGUGUGUGAACGTT against Ascl3 | inactive: -0.067 |
| GGAGGAGUUGCACCUCAUCTT against Cdk18 | inactive: -0.675 |

| Sequence | z-score |
| --- | --- |
| CCCACUAUCAACACUGGUATT against Gm609 | inactive: -0.0123 |
| GCCAAUAGCAUCUGUGGACTT against Olfr566 | inactive: -1.85 |
| GGUCCUGAAAAAAGUGAUUTT against Eri1 | inactive: -0.0192 |
| CAAAGCAUGUAACAUCCAATT against Cfhr2 | inactive: 0.591 |
| AAUCUAUUAGGUUAGAGGATT against 9630041A04Rik | inactive: 0.697 |
| GGCUUUGCACUCAGCGUACTT against Inpp5k | inactive: -0.824 |
| AAAGAAACUAGAGAGAGCATT against LOC434320 | inactive: 0.327 |
| ACUCCUUCCGAGUUGUUGGTT against Vasp | inactive: -0.345 |
| GGAACAGAGAAGCUACUAATT against Ddx3x | inactive: 1.55 |
| CUCUGCUUUUUUCCUGUGCTT against D130007C19Rik | inactive: 0.558 |
| GGCUUCCUAAGGGAUAAGATT against Slc16a11 | inactive: -1.1 |
| GGAUGAGUUUCAGAACAGUTT against Ifit2 | inactive: -0.263 |
| GGGCUAUGUCCACAGCUUUTT against Il27 | inactive: -0.475 |
| GGUACUGGCAUGGUGACAATT against Mmp11 | active: -2.52 |
| GGAUGAAGAGAAAGACAAGTT against Zscan21 | inactive: 0.809 |
| GGAAACCAGAAAGAUCAUGTT against Phkg1 | inactive: -0.177 |
| GCCAACAGUAACGGUAUUGTT against Patz1 | active: -2.04 |
| CGGGCUGGAAGAAAUCUCUTT against Rhox3a | inactive: 0.771 |
| GCACUUCCGAACAUCUAGCTT against Mau2 | inactive: -1.1 |
| CGUGUAGACUUUGAGACGUTT against Myl6b | inactive: 0.202 |
| GCUCGAACAUAGCAGCAAGTT against BC061195 | active: -2.11 |
| GGAUCUUAUGCGAAGCCGCTT against Ccdc60 | inactive: 0.537 |

| Sequence | z-score |
| --- | --- |
| GGAAGGGUUUGUUUGUUUATT against Nkiras1 | inactive: 1.55 |
| GCUUUGCUAAGCCUAAAAGTT against Zbtb44 | inactive: -1.12 |
| GCAUGACUCUCAGGUCAAGTT against Lman2 | inactive: 1.54 |
| GGUAUUGACAGGGAUCUGATT against Limk1 | inactive: 1.19 |
| CCUGCUACCAGAUGAACCATT against Man1b1 | inactive: -1.39 |
| GGCCAAAGACUUUUGGAAUTT against Rgs1 | inactive: 0.72 |
| GGAAGCUCUAAAAAGAGUGTT against Olfr23 | inactive: -1.14 |
| GGAAUUGGUUCAUUUGGUUTT against Unkl | inactive: 0.84 |
| GCGGUAUGGGAAGCUAAAGTT against Rhbdf1 | inactive: 0.617 |
| GGAGACACCCGAAAUACAUTT against Adam18 | inactive: 1.49 |
| CGGAGUUGAAGUCACAUACTT against Il20ra | inactive: -0.13 |
| GGCGACACAUUAAAAUAGUTT against Mepe | active: 2.19 |
| GGUUAUGAAACUUGGAAAUTT against Cdkn2c | inactive: -0.192 |
| GCUGUUCCUCUUUCUUUCUTT against Olfr522 | inactive: 0.315 |
| GGUAACAAACUACAUUUGCTT against Pcdhb16 | active: 2.7 |
| GGGAUUGGGUAUUUUUUAGTT against B4galt1 | inactive: -0.432 |
| CCAUAUCCAAUAAUAGAGATT against Trip12 | inactive: 0.972 |
| GGAAAUUUUGAACCUGACATT against Setd3 | inactive: 0.125 |
| GGACUGAUAGAGGACUUCCTT against Bloc1s6 | inactive: -0.56 |
| CGAUGAAAUGAUAUGCAAATT against Kdm5b | inactive: 0.605 |
| GGAUGGUGACAUCAUUCCGTT against Tha1 | inactive: -1.43 |
| GCCUUGGAUAAACCAGACGTT against Mfsd4a | active: -2.38 |

Some of the entries above in a different format:
GGAAUUGGUUCAUUUGGUUTT against Unkl
  z-score: inactive: 0.84
GCGGUAUGGGAAGCUAAAGTT against Rhbdf1
  z-score: inactive: 0.617
GGAGACACCCGAAAUACAUTT against Adam18
  z-score: inactive: 1.49
GGAUGGUGACAUCAUUCCGTT against Tha1
  z-score: inactive: -1.43

Later entries:

| Sequence | z-score |
| --- | --- |
| GGACUUUAAGUGAGAAUCUTT against BC106179 | inactive: 0.0661 |
| GGACCAACACACAACAUCCTT against Slc25a23 | inactive: -0.301 |
| GGGACACCCUUUGAAGAUGTT against Ube2b | inactive: -0.314 |
| GGAAAGAAUUGGAUGACUATT against Chil6 | inactive: 0.775 |
| GGACAAGUACCAAGUCAAUTT against Plaat3 | inactive: 1.37 |
| GGUGGACAUCUUGGACAUUTT against Amn | inactive: 1.85 |
| GCCAAAGACGAUUAUCGAATT against Hook3 | inactive: -0.299 |
| CCCUCUUCUGUAUGCAUCGTT against Olfr262 | inactive: -1.14 |
| GGCUACAUGAGAAGCACAGTT against Disc1 | inactive: 1.64 |
| GGUCUAAAACUCUCAUAAUTT against Sfmbt1 | inactive: -1.24 |
| GGUGCUCCACAACACCUAUTT against 2510039O18Rik | active: 2.05 |
| GGAAGAUGAUGAUAAUGAGTT against Cdv3 | inactive: -0.317 |
| GGAAGAAUGCCACAAGGGATT against Irx6 | inactive: 1.71 |
| GCUUACCUUGGACAAAUGUTT against Mfsd14a | inactive: -1.17 |
| GGGUGCUGAAAUGAAGCAUTT against Osbpl1a | inactive: 0.518 |
| GCAAGAACUUCGCUGCUCUTT against Smdt1 | inactive: 1.74 |
| GGAGAUUGACAUCCUGCCUTT against Pdk4 | inactive: 1.71 |
| GGCAGUCACUGGCUAAAUGTT against Ugt2a1 | active: 2.13 |
| UGAUAAGGCAGCCGUAUCCTT against Amelx | inactive: 0.0399 |
